Values are the deposited “Percent Effect”, in %. The controls that fix the scale are not given in the record; negative values are as filed. This is an unselected part of the compounds tested. A dash means the value is not listed here; it may have been measured.

Mtb growth Cornell: 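Whole-cell assay for inhibitors of Mycobacterium tuberculosis growth, labelled Cornell in the record; the read-out is not stated. The concentration is filed as 10 mM, unlikely as a test dose, so the dose is not known. Higher means stronger inhibition (inferred from two other growth screens of the library). About 53,000 compounds were tested under these conditions; 1.7% (about 900) showed 50% or more at least once.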
Mtb heat-shock: 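Assay on Mycobacterium tuberculosis, filed only as a heat shock assay from Cornell; the read-out is not stated. The concentration is filed as 10 mM, unlikely as a test dose, so the dose is not known. Higher reads as stronger inhibition (inferred: compounds with an IC50 in retests scored well above the rest). Size under these conditions: about 69,000 compounds, about 930 of them at 50% or above in at least one test.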

| SMILES | Mtb growth Cornell | Mtb heat-shock |
|---|---|---|
| `O=C(O)C(F)(F)F.[H][C@]12C[C@@H](C(=O)Nc3cnccn3)CO[C@@]1([H])CCN(c1ncc(F)cn1)C2` | -5.091 | -2.553 |
| `COc1ccc(-c2cn(CCSc3ncn[nH]3)nn2)cn1` | - | 1.005 |
| `COCc1csc(NC(=O)NCc2ccc(C)s2)n1` | 15.06 | -9.897 |
| `CC(NC(=O)NCCCO)c1ccc(-c2ccncc2)cc1` (centres unmarked) | -7.683 | -13.61 |
| `CN(CCCc1cnn(C)c1)Cc1cc2n(n1)CCCNC2` | 18.02 | 7.506 |
| `Cc1nc(-c2ccccc2C(=O)O)cc(C2CCN(C(C)C)C2)n1` (centres unmarked) | -51.56 | -33.48 |
| `CCN(CC)CC[C@H]1CN(C(=O)NC2CCCCC2)CC[C@H]1CC(=O)O` | - | -12.56 |
| `CS(=O)(=O)NCc1cncc2c1CCN(CC1CCOC1)C2.Cl.Cl` (centres unmarked) | -9.2 | -35.11 |
| `Cn1cc(S(=O)(=O)N2CCC(OCCCc3ccccc3)C2)cn1` (centres unmarked) | 25.94 | 1.671 |
| `CCc1noc(CS(=O)(=O)CC(=O)N2c3ccccc3CC2C)n1` (centres unmarked) | - | 15.66 |
| `CN(C)c1nccc(-c2cnc(N(C)C)[nH]c2=O)n1` | 7.337 | -19.92 |
| `COc1cccc(OCC2CCCN(C3CCN(C(C)=O)CC3)C2)c1` (centres unmarked) | - | -13.66 |
| `Cc1noc(C)c1CC(=O)OCC(=O)N1CCc2sccc2C1` | - | -5.336 |
| `CCOCCS(=O)(=O)c1nnc(NCCOC)s1` | - | -13 |
| `CCN1CCN(S(=O)(=O)c2cn(C(C)C)cn2)c2ccccc21` | 29.16 | 15.01 |
| `Cc1cc(NC(=O)CNC(C)(C)c2ccccc2)on1` | -3.695 | -3.008 |
| `NCc1cccc(-c2cccnc2C(=O)NCCCN2CCOCC2)c1` | 7.052 | 12.51 |
| `N#Cc1ccc(N2CCC3(CC2)COCCN3Cc2cccnc2)cc1.O=C(O)C(F)(F)F` | 25.29 | -4.634 |
| `COCCS(=O)(=O)Cc1nnnn1-c1ccccc1` | 16.13 | 7.896 |
| `CS(=O)(=O)CCCNC1(c2cccc(F)c2)CC1` | - | 8.263 |
| `Cc1cc(C2CCCN2C(=O)c2csc(-c3cnn(C)c3)n2)on1` (centres unmarked) | -3.097 | 16.47 |
| `CCN(CC)C(=O)CN(C)Cc1nc2c(cnn2C)c(=O)[nH]1` | 20.64 | -5.753 |
| `CC(C)NC(=O)N(C)C1CCN(c2ccccc2Cl)C1=O` (centres unmarked) | 12.78 | 7.418 |
| `CN1CCN(C(=O)CCCc2ccccc2)CC(O)(Cn2cccn2)C1` (centres unmarked) | 14.35 | -4.989 |
| `COc1ccc(CNC(=O)CCN2C[C@@H](C)[C@](O)(C3CC3)C2)cc1` | 16.91 | -0.5351 |
| `Cc1ccc(C(=O)N2CCOCC2C(N)=O)c(F)c1` (centres unmarked) | - | -6.887 |
| `C[C@H]1CN(CC2CCOCC2)C[C@@]12CCN(Cc1cccnc1)C2=O.O=C(O)C(F)(F)F.O=C(O)C(F)(F)F` | 0.482 | 4.288 |
| `O=C(CCn1cc(Cl)cn1)N1CCN(CCOc2ccccc2)CC1` | - | 5.983 |
| `CC(C1CCN(Cc2cnn(C)c2C2CC2)CC1)N1CCCC1` (centres unmarked) | 21.04 | 28.44 |
| `COc1cc(CC(O)CC#N)c(OC)c2c1OCO2` (centres unmarked) | -45.46 | 15.3 |
| `O=C(O)C(F)(F)F.O=C(O)C(F)(F)F.[H][C@]12CCN(c3ncccn3)C[C@@]1([H])OCCN(Cc1ccncc1)C2` | 8.881 | -8.105 |
| `Cc1cnn(C2CN(Cc3nnc(-c4ccccc4Cl)o3)C2)c1` | -48.85 | -16.03 |
| `CCOc1ccc(NC(=O)c2ccc(C#N)cc2C)cc1CO` | 3.214 | -5.539 |
| `O=C(O)C(F)(F)F.[H][C@@]12OCCN(Cc3nccs3)[C@@]1([H])CC[C@H]2OCC1CCCC1` | 17.92 | -11.97 |
| `[H][C@@]12CCC(=O)N(CCC3=CCCCC3)[C@]1([H])CCN(Cc1cnn(C)c1)C2` | 17.17 | -24.7 |
| `[H][C@@]12CCN(Cc3cccs3)[C@]1([H])CC[C@H](COCC1CC1)O2` | -14.88 | -15.14 |
| `CCOCCN1CCN(CCC(=O)N2CCCCC2)CC1C` (centres unmarked) | -6.839 | -2.672 |
| `CN1CC(=O)N(C2CCNCC2)Cc2c(NC3CCC3)ncnc21` | - | -15.85 |
| `Cc1cc(Br)ccc1C(=O)NCCN1CCCCCC1` | 31.48 | 12.55 |
| `Cc1n[nH]cc1CNC1CCN(c2ccccc2)CC1.Cl` | -4.718 | -34.62 |
| `CCN(Cc1cnn(C)c1)C(=O)c1ccc(C)c(N2CCNC2=O)c1` | 9.719 | -3.192 |
| `Cc1n[nH]cc1CNC1(c2ccc(Br)cc2)CC1` | - | 39.62 |
| `Cc1noc(-c2ccc(N3CCCC(C(N)=O)C3)nc2)n1` (centres unmarked) | 15.98 | 1.919 |
| `Cc1ccc(CNC2(Cc3cc(CC(C)C)on3)COC2)o1` | 2.035 | -24.03 |
| `COc1ccc(CC(=O)N2CC[C@@H](OC)[C@@H]2Cc2cccnc2)cc1.O=C(O)C(F)(F)F` | 19.48 | -4.792 |
| `Fc1cccc(Cc2cncc(C3CCCN3C3CCOCC3)n2)c1` (centres unmarked) | -1.994 | -4.905 |
| `COc1cc2cc(C(=O)NC(C)C(=O)O)n(C)c2c(OC)c1OC` (centres unmarked) | 15.33 | 4.847 |
| `CC(C)(C)c1cn2c(n1)C(CNCc1cnn3ccccc13)CCC2` (centres unmarked) | 18.22 | 15.66 |
| `CC(c1ccccn1)N(C)Cc1cccc(C(=O)Nc2nccn2C)c1` (centres unmarked) | -26 | 74 |
| `NCC1CCN(C2CCN(c3ccc(-c4ccco4)cc3)CC2)C1` (centres unmarked) | 0.8887 | -15.52 |
| `O=C(O)C(F)(F)F.O=C(O)C(F)(F)F.O=C(O)C(F)(F)F.[H][C@@]12CCN(Cc3nccn3C)C[C@]1([H])[C@@H](CNc1ncccn1)OC2` | 20.66 | -17.85 |
| `CCc1ccc2c(c1)C(CCNC(=O)Cc1ccc(F)cc1)C(=O)N2` (centres unmarked) | -0.1123 | 8.707 |
| `CCc1n[nH]c(C2CN(C(=O)c3cc(C(N)=O)cs3)CCO2)n1` (centres unmarked) | - | -11.69 |
| `O=C(NCCCN1CCCC1=O)c1ccc(-n2ccc3ccccc32)s1` | 19.74 | 22.37 |
| `[H][C@]12CCC[C@@]1(CO)CN(C(=O)c1cc(CCC)n[nH]1)C2` | 15.98 | 14.16 |
| `NC(=O)CCN1CCC(C(=O)c2cc(F)ccc2F)CC1` | -10.75 | -14.14 |
| `CCOc1cccc(COC(=O)c2ccc(F)cn2)n1` | 26.62 | 13.42 |
| `Cc1nn(C)c2ncc(CN3CCCCCC3)cc12` | -10.78 | -10.39 |
| `Cl.c1cc(NCc2ccncc2)nc(C2CCCNC2)c1` (centres unmarked) | 1.945 | -6.434 |
| `Cn1cc(CN2CCCC(n3c(=O)oc4ccccc43)C2)cn1` (centres unmarked) | 5.416 | 1.058 |
| `[H][C@]12CN(C(=O)C3CC3)CCN1C[C@H](c1ccccc1)[C@H]2CO` | 20.15 | 4.957 |
| `O=C(NC[C@H]1OC[C@@H](NCc2ccc(F)cc2)[C@@H]1O)N1CCOCC1` | -8.258 | 1.126 |
| `CC(C)NC1CCc2c(ccc(=O)n2CCN(C)C)C1.O=C(O)C(F)(F)F.O=C(O)C(F)(F)F` (centres unmarked) | -13.3 | -27.1 |
| `CN(Cc1ccc2c(c1)OCO2)C(=O)c1ccc(=O)n(C)c1` | 6.902 | 2.124 |
| `Cn1cc(CN2CCCN(CCCc3ccccc3)CC2)cn1` | 11.71 | 18 |
| `CC(Cn1cccn1)NC(=O)Cc1csc(C(C)C)n1` (centres unmarked) | -40.53 | -11.13 |
| `COc1cccc(N2CCN(Cc3nccn3C(C)C)CC2=O)c1` | 33.71 | 4.002 |
| `COc1cc(NCCNC(=O)c2cc[nH]c2C)cc(OC)c1` | -30.48 | -9.637 |
| `O=C(CCOCc1ccccc1)NS(=O)(=O)N1CCOc2ccccc21` | 37.95 | 14.86 |
| `COc1cnc(C2(O)CCN(C(=O)c3ccccn3)CC2)c(OC)n1` | - | -3.916 |
| `COCC(c1ccccn1)N(C)C(=O)c1cc(-c2ccccc2O)n[nH]1` (centres unmarked) | 11.16 | -15.84 |
| `CCOc1cc(CNC(=O)N2CCC(Cc3cnn(C)c3)C2)ccn1` (centres unmarked) | 9.81 | -16.69 |
| `Nc1nc2c(c(N3CCSCC3)n1)CCN(Cc1ccccn1)CC2` | 30.44 | -0.2545 |
| `Cc1nc(CN(C)C2CCCN(Cc3noc(C4CC4)n3)C2)oc1C` (centres unmarked) | -22.23 | -23.01 |
| `O=C(O)C(F)(F)F.O=C1COC2(CCN(C(=O)c3ccco3)CC2)CN1Cc1ccccn1` | 9.639 | -21.74 |
| `NC(=O)N1CCC(C(=O)NCc2nncn2-c2ccccc2)CC1` | - | -14.83 |
| `c1cnc(NCc2noc3c2CN(C2CCOCC2)CC3)nc1` | 15.61 | 4.755 |
| `CCOCC(O)CN1CCN(C(=O)c2cccc3[nH]ncc23)CC1` (centres unmarked) | -22.23 | 15.81 |
| `CN(Cc1cnn(C)c1)C(=O)CN1CCCCC1Cn1cncn1` (centres unmarked) | - | -9.464 |
| `O=C(c1ccc(O)nc1)N1CCN(C(=O)c2ccc(F)cc2F)CC1` | 9.74 | 10.14 |

10 of the entries, repeated:

SMILES,Mtb growth Cornell,Mtb heat-shock
Cl.c1cc(NCc2ccncc2)nc(C2CCCNC2)c1 (centres unmarked),1.945,-6.434
CC(Cn1cccn1)NC(=O)Cc1csc(C(C)C)n1 (centres unmarked),-40.53,-11.13
COc1cc(NCCNC(=O)c2cc[nH]c2C)cc(OC)c1,-30.48,-9.637
COCCS(=O)(=O)Cc1nnnn1-c1ccccc1,16.13,7.896
O=C(O)C(F)(F)F.O=C(O)C(F)(F)F.O=C(O)C(F)(F)F.[H][C@@]12CCN(Cc3nccn3C)C[C@]1([H])[C@@H](CNc1ncccn1)OC2,20.66,-17.85
COCC(c1ccccn1)N(C)C(=O)c1cc(-c2ccccc2O)n[nH]1 (centres unmarked),11.16,-15.84
CCc1ccc2c(c1)C(CCNC(=O)Cc1ccc(F)cc1)C(=O)N2 (centres unmarked),-0.1123,8.707
Cc1nc(CN(C)C2CCCN(Cc3noc(C4CC4)n3)C2)oc1C (centres unmarked),-22.23,-23.01
Cc1noc(-c2ccc(N3CCCC(C(N)=O)C3)nc2)n1 (centres unmarked),15.98,1.919
Cc1n[nH]cc1CNC1(c2ccc(Br)cc2)CC1,-,39.62

From ChEMBL document CHEMBL3988442, “University of Dundee, Small-Polar-MMV Screening Library” (2021).